# Measured values taken from the supplement of paper PMC9015667.
# Where a name gives a salt, the structure may show the parent alone. The list shows a part of the results. Repeats are few or missing, and single values can be far off.
# Assays:
# Test in all cases: reduction in cell viability relative to untreated/vehicle; higher = more growth inhibition
# Details in all cases: 200 nM; 72 h
# M229P = system: M229P (parental melanoma line)
# M229R = system: M229R (matched melanoma line resistant to BRAF inhibitors)
# M238P = system: M238P (parental melanoma line)
# M238R = system: M238R (matched melanoma line resistant to BRAF inhibitors)
# M249P = system: M249P (parental melanoma line)
# M249R = system: M249R (matched melanoma line resistant to BRAF inhibitors)
# UACC62P = system: UACC62P (parental melanoma line)
# UACC62R = system: UACC62R (matched melanoma line resistant to BRAF inhibitors)
Compound,reduction in cell viability (M229P) [%],reduction in cell viability (M229R) [%],reduction in cell viability (M238P) [%],reduction in cell viability (M238R) [%],reduction in cell viability (M249P) [%],reduction in cell viability (M249R) [%],reduction in cell viability (UACC62P) [%],reduction in cell viability (UACC62R) [%]
CCC[C@H](N[C@@H](C)C(=O)N1[C@H](C(=O)O)C[C@@H]2CCCC[C@@H]21)C(=O)OCC [Perindopril],< 0,< 0,< 0,< 0,< 0,< 0,< 0,< 0
C#Cc1cccc(Nc2ncnc3cc(OCCOC)c(OCCOC)cc23)c1 [Erlotinib hydrochloride],< 0,< 0,< 0,< 0,< 0,< 0,< 0,< 0
CO[C@@H]1[C@H](N(C)C(=O)c2ccccc2)C[C@H]2O[C@]1(C)n1c3ccccc3c3c4c(c5c6ccccc6n2c5c31)C(=O)NC4,< 0,9.67,18.4,58.1,< 0,< 0,< 0,31.6
"Cc1c(C(=O)Nc2ccc(N3C[C@@H](C)O[C@@H](C)C3)nc2)cccc1-c1ccc(OC(F)(F)F)cc1 [LDE225 (NVP-LDE225,Erismodegib)]",< 0,< 0,< 0,< 0,< 0,< 0,< 0,< 0
CN(C)C(=N)NC(=N)N [Metformin HCl],< 0,< 0,< 0,< 0,< 0,< 0,< 0,< 0
CCN(CC)CCOc1ccc(Nc2ncc3cc(-c4c(Cl)cccc4Cl)c(=O)n(C)c3n2)cc1,64.1,63.2,70.9,60.7,16.2,61.3,51,70.5
O=C(Nc1cccnc1)N1CCC(Cc2cccc(Oc3ccc(C(F)(F)F)cn3)c2)CC1,< 0,< 0,< 0,< 0,< 0,< 0,14.5,< 0
COc1cc(Oc2ccnc3cc(OC)c(OC)cc23)ccc1NC(=O)NC(C)c1nccs1 (stereo not drawn),< 0,< 0,< 0,< 0,< 0,< 0,< 0,< 0
COC(=O)Nc1nc2cc(Sc3ccccc3)ccc2[nH]1 [Fenbendazole],17.9,35.2,33.2,17.8,24.7,38.1,38.9,74.3
CCc1c(O)cc(O)c(C(=O)c2ccc(OCCN3CCOCC3)c(OC)c2)c1CC(=O)N(CCOC)CCOC,< 0,13.3,4.51,< 0,< 0,< 0,39.6,< 0
O=C1CCc2ccc(OCCCCN3CCN(c4cccc(Cl)c4Cl)CC3)cc2N1 [Aripiprazole],< 0,< 0,< 0,< 0,< 0,< 0,< 0,< 0
Cc1c(Cn2c(C)nc3c(C(=O)O)cc(N4CCOCC4)cc32)cccc1C(F)(F)F,< 0,< 0,< 0,< 0,< 0,< 0,< 0,< 0
COc1cc2nc(N(C)CCCNC(=O)C3CCCO3)nc(N)c2cc1OC (stereo not drawn) [Alfuzosin hydrochloride],< 0,< 0,< 0,< 0,< 0,< 0,< 0,< 0
CC[C@@H]1C(=O)N(C)c2cnc(Nc3ccc(C(=O)NC4CCN(C)CC4)cc3OC)nc2N1C1CCCC1,29.9,47.5,34.6,< 0,24.6,43.8,41.9,72.9
O=C(O)c1cn(-c2ccc(F)cc2)c2cc(N3CCNCC3)c(F)cc2c1=O [Sarafloxacin hydrochloride],< 0,< 0,< 0,< 0,< 0,< 0,< 0,< 0
C=CCc1cccc(/C=N/NC(=O)CN2CCN(Cc3ccccc3)CC2)c1O,< 0,< 0,< 0,< 0,< 0,< 0,< 0,< 0
NC(=O)c1ccc(-c2nc(-c3ccccn3)c(-c3ccc4c(c3)OCO4)[nH]2)cc1,< 0,< 0,< 0,< 0,< 0,< 0,< 0,< 0
O[C@@H](COc1cccc2ncccc12)CN1CCN(C2c3ccccc3[C@@H]3[C@H](c4ccccc42)C3(F)F)CC1 (stereo partly drawn),< 0,< 0,< 0,< 0,< 0,< 0,< 0,< 0
CC1=C(C(=O)O)N2C(=O)[C@@H](NC(=O)[C@H](N)c3ccccc3)[C@H]2SC1 [Cephalexin],< 0,5.6,< 0,< 0,< 0,< 0,< 0,< 0
CCn1c(=O)c2c(nc(/C=C/c3ccc(OC)c(OC)c3)n2C)n(CC)c1=O [Istradefylline],< 0,< 0,< 0,< 0,< 0,0.68,0.74,< 0
COc1cccc(Nc2c(C(N)=O)cnc3c(C)cc(S(=O)(=O)c4cccc(C(=O)N(C)C)c4)cc23)c1,< 0,< 0,< 0,< 0,< 0,< 0,< 0,< 0

Compound,reduction in cell viability (M229P) [%],reduction in cell viability (M229R) [%],reduction in cell viability (M238P) [%],reduction in cell viability (M238R) [%],reduction in cell viability (M249P) [%],reduction in cell viability (M249R) [%],reduction in cell viability (UACC62P) [%],reduction in cell viability (UACC62R) [%]
Clc1ccc2c(c1)C(N1CCNCC1)=Nc1ccccc1O2 [Amoxapine],< 0,< 0,< 0,< 0,< 0,8.04,4.16,< 0
N#Cc1ccc(COC[C@H]2O[C@@H](n3c(NCc4ccc(Cl)c(Cl)c4)nc4c(N)ncnc43)[C@H](O)[C@@H]2O)cc1,< 0,< 0,< 0,< 0,< 0,< 0,< 0,< 0
O=C1N(c2ccccc2)c2ccccc2C1(Cc1ccncc1)Cc1ccncc1 [Linopirdine],< 0,< 0,< 0,< 0,< 0,< 0,0.07,< 0
Clc1cccc(Cl)c1NC1=NCCN1 [Clonidine],< 0,< 0,< 0,< 0,< 0,< 0,0.19,< 0
CC(=O)N[C@H]1[C@H]([C@H](O)[C@H](O)CO)OC(C(=O)O)=C[C@@H]1NC(=N)N [Zanamivir],< 0,32.2,24.5,34,< 0,4.46,31.2,46.3
CC(C)CCCCC(=O)N[C@@H](CCN)C(=O)N[C@H](C(=O)N[C@@H](CCN)C(=O)N[C@H]1CCNC(=O)[C@H]([C@@H](C)O)NC(=O)[C@H](CCN)NC(=O)[C@H](CCN)NC(=O)[C@H](CC(C)C)NC(=O)[C@@H](Cc2ccccc2)NC(=O)[C@H](CCN)NC1=O)[C@@H](C)O [Polymyxin B sulphate],< 0,< 0,< 0,< 0,< 0,< 0,< 0,< 0
N#Cc1c(C2CCNCC2)cc(-c2c(O)cccc2OCC2CC2)nc1N [IKK-2 Inhibitor VIII],< 0,< 0,< 0,< 0,< 0,< 0,< 0,< 0
COc1cc(C)c(Sc2cnc(NC(=O)c3ccc(CNC(C)C(C)(C)C)cc3)s2)cc1C(=O)N1CCN(C(C)=O)CC1 (stereo not drawn),< 0,< 0,< 0,< 0,1.34,< 0,6.61,< 0
NS(=O)(=O)c1cc(Cl)c(Cl)c(S(N)(=O)=O)c1 [Diclofenamide],< 0,< 0,< 0,< 0,< 0,7.8,< 0,< 0
Nc1nnc(-c2cccc(Cl)c2Cl)c(N)n1 [Lamotrigine],< 0,< 0,< 0,< 0,< 0,< 0,< 0,< 0
Cc1nn(Cc2ccccc2Cl)c(C)c1CN(C)CC(O)COc1ccc(Cl)cc1 (stereo not drawn),< 0,< 0,< 0,< 0,< 0,< 0,7.91,< 0
COc1cc2nc(N3CCN(C(=O)c4ccco4)CC3)nc(N)c2cc1OC [Prazosin hydrochloride],< 0,< 0,< 0,< 0,< 0,< 0,< 0,< 0
Cn1cc(/C=C2\C(=O)Nc3cccnc32)c2ccccc21,< 0,< 0,< 0,< 0,< 0,< 0,< 0,< 0
CNCc1ccc(-c2[nH]c3cc(F)cc4c3c2CCNC4=O)cc1 [Rucaparib],< 0,< 0,< 0,< 0,< 0,< 0,< 0,< 0
CCc1ccc(C(=O)Nc2cc(CN3CCN(C)CC3)cc(C(F)(F)F)c2)cc1C#Cc1cnc2ccnn2c1,< 0,< 0,< 0,< 0,< 0,< 0,< 0,< 0
CC(C)c1nc(CN(C)C(=O)N[C@H](C(=O)N[C@@H](Cc2ccccc2)C[C@H](O)[C@H](Cc2ccccc2)NC(=O)OCc2cncs2)C(C)C)cs1 [Ritonavir],< 0,< 0,< 0,< 0,< 0,< 0,< 0,< 0
c1ccc2[nH]c(-c3cscn3)nc2c1 [Thiabendazole],< 0,< 0,< 0,< 0,< 0,< 0,< 0,< 0
Clc1ccccc1CN1CCc2sccc2C1 [Ticlopidine hydrochloride],< 0,< 0,< 0,< 0,< 0,2.54,< 0,< 0
Cn1cnc(N)c2ncnc1-2 [3-Methyladenine],< 0,< 0,< 0,< 0,< 0,< 0,< 0,< 0
CCOc1ccc(Nc2nc(-c3c(C)nc4ccccn34)cs2)cc1,36.2,57.5,64.5,63.3,59.5,46.8,50.2,86.6

# Structural class: the compounds so far containing a cyano group.
Compound,reduction in cell viability (M229P) [%],reduction in cell viability (M229R) [%],reduction in cell viability (M238P) [%],reduction in cell viability (M238R) [%],reduction in cell viability (M249P) [%],reduction in cell viability (M249R) [%],reduction in cell viability (UACC62P) [%],reduction in cell viability (UACC62R) [%]
N#Cc1ccc(COC[C@H]2O[C@@H](n3c(NCc4ccc(Cl)c(Cl)c4)nc4c(N)ncnc43)[C@H](O)[C@@H]2O)cc1,< 0,< 0,< 0,< 0,< 0,< 0,< 0,< 0
N#Cc1c(C2CCNCC2)cc(-c2c(O)cccc2OCC2CC2)nc1N [IKK-2 Inhibitor VIII],< 0,< 0,< 0,< 0,< 0,< 0,< 0,< 0
